Reference: ChEMBL document CHEMBL1153083, “Antiprotozoal, anticancer and antimicrobial activities of dihydroartemisinin acetal dimers and monomers” (Bioorg Med Chem, 2009)

Test system: SK-OV-3
Assay: Cytotoxicity against human SKOV3 cells after 48 hrs by neutral red assay
Type: functional, cell-based
Settings: SK-OV-3, 48 h
Summary of the method: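 Cells seeded at 25,000 per well and incubated 24 h, then exposed to samples for 48 h. Viable cells were counted by neutral red, with DMSO as vehicle control. IC50 or TC50 values were derived from logarithmic plots of growth inhibition versus concentration.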

## CC(=O)O[C@H]1C(=O)[C@@]2(C)[C@H]([C@H](OC(=O)c3ccccc3)[C@]3(O)C[C@H](OC(=O)[C@H](O)[C@@H](NC(=O)c4ccccc4)c4ccccc4)C(C)=C1C3(C)C)[C@]1(OC(C)=O)CO[C@@H]1C[C@@H]2O [PACLITAXEL]
  IC50: 530 nM
